The results in this text go back to doi:10.1101/2019.12.13.867358 (bioRxiv, 2019).

These are yes or no findings as the source states them, for the method shown. Some results given as binding are weak or reduced against the parent protein; the word gives no strength.

Common to all, as to experiment: tandem affinity co-purification
One assay concerns the target T1, Brn1 (S. cerevisiae) (UniProt P38170).
T1 sequence: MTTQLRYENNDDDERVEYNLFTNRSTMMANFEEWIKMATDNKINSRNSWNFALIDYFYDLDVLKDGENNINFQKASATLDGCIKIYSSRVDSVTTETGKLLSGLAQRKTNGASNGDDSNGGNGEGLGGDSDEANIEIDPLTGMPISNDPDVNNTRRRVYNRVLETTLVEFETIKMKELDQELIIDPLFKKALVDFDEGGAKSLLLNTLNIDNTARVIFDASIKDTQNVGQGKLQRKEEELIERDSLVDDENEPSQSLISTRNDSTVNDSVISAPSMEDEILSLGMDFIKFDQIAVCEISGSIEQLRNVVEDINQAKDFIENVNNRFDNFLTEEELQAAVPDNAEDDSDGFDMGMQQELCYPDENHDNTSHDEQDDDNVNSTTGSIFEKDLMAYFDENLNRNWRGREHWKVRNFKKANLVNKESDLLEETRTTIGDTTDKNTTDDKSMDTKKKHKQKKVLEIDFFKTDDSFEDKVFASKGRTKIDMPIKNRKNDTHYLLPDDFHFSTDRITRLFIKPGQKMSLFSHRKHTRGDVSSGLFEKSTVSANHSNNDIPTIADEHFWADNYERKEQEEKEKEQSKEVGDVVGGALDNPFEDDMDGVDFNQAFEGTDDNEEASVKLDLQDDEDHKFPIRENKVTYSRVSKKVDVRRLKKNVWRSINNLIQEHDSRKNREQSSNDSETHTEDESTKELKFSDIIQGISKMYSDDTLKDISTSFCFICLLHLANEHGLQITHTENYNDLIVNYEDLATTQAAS

The target of assay [1] is T2, Smc4 E1352Q (S. cerevisiae) (UniProt Q12267).
T2 sequence: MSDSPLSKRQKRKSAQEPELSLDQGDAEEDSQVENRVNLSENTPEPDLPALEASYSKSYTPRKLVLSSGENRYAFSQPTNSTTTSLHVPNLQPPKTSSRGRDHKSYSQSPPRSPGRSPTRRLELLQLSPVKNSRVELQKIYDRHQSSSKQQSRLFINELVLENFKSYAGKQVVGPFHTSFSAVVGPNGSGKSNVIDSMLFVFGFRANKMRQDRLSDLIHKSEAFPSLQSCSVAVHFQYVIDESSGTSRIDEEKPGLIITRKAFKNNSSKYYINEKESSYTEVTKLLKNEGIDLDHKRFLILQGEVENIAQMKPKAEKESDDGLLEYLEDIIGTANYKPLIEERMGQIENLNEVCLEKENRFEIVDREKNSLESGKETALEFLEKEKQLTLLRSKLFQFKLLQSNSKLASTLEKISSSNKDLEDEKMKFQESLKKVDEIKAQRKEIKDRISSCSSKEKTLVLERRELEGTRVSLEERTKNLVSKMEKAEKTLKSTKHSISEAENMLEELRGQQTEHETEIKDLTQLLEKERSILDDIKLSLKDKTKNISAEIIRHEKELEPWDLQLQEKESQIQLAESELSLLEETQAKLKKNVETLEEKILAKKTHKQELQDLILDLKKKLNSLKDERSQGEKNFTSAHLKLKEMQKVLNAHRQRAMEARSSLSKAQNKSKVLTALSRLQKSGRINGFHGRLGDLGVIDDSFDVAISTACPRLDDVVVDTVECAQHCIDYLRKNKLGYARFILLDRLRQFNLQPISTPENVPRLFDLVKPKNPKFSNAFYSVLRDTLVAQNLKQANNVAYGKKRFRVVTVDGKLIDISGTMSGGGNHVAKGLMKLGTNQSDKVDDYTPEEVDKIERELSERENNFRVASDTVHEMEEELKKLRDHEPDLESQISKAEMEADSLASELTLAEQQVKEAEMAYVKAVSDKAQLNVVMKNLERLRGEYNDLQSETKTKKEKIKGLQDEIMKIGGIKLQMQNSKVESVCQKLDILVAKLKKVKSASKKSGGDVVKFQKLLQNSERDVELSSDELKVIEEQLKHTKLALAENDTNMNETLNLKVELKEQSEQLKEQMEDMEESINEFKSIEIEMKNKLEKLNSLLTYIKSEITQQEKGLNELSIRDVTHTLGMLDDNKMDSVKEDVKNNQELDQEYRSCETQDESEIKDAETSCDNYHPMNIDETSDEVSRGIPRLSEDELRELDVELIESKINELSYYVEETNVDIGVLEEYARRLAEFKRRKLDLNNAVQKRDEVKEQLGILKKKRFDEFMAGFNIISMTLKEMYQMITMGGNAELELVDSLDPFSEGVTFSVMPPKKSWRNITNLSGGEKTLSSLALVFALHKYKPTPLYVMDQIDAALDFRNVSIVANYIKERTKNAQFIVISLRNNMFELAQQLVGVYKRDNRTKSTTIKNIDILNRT

Assay [2] has as its target T3, Smc4 (S. cerevisiae), Q12267.
T3 chain: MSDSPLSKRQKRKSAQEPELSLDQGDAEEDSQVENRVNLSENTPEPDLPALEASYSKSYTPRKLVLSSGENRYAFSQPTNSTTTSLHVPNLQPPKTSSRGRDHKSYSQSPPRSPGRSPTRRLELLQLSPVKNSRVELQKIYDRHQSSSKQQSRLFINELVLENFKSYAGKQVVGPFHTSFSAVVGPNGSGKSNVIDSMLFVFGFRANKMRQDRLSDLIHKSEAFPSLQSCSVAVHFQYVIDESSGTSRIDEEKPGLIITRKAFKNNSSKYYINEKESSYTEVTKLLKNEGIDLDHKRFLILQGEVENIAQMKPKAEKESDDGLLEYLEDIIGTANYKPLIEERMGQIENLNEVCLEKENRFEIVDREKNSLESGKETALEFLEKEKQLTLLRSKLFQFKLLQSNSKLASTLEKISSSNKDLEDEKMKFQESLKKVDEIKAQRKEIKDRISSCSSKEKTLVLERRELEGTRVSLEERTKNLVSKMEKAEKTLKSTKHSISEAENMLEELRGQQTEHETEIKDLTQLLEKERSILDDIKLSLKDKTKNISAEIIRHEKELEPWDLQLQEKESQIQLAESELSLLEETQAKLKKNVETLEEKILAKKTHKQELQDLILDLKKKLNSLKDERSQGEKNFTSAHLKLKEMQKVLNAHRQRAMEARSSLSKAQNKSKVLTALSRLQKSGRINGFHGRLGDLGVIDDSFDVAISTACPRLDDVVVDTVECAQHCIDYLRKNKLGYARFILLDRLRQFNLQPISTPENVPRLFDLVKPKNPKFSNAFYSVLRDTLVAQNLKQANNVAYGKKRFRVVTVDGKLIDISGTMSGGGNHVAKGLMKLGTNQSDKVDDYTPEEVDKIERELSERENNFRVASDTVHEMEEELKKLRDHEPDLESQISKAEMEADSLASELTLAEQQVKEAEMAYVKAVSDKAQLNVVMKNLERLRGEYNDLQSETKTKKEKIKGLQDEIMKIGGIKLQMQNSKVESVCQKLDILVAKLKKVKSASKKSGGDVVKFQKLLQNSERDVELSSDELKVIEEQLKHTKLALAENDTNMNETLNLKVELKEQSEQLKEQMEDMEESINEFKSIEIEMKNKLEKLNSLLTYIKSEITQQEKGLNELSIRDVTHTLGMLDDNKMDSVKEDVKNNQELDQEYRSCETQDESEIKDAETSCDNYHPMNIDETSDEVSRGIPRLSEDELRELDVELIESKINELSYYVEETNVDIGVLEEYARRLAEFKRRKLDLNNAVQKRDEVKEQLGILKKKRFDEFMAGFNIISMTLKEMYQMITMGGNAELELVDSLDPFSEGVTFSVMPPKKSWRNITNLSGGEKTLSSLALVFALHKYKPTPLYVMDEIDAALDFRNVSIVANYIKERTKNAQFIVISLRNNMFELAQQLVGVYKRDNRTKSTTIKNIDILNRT
As to conditions: remark: other sources report otherwise.

B1: Smc2 E1113Q (protein, UniProt P38989 1-1170)
chain: MKVEELIIDGFKSYATRTVITDWDPQFNAITGLNGSGKSNILDAICFVLGIASMSTVRASSLQDLIYKRGQAGVTKASVTIVFDNTDKSNSPIGFTNSPQISVTRQVVLGGTSKYLINGHRAPQQSVLQLFQSVQLNINNPNFLIMQGKITKVLNMKPSEILSLIEEAAGTKMFEDRREKAERTMSKKETKLQENRTLLTEEIEPKLEKLRNEKRMFLEFQSTQTDLEKTERIVVSYEYYNIKHKHTSIRETLENGETRMKMLNEFVKKTSEEIDSLNEDVEEIKLQKEKELHKEGTISKLENKENGLLNEISRLKTSLSIKVENLNDTTEKSKALESEIASSSAKLIEKKSAYANTEKDYKMVQEQLSKQRDLYKRKEELVSTLTTGISSTGAADGGYNAQLAKAKTELNEVSLAIKKSSMKMELLKKELLTIEPKLKEATKDNELNVKHVKQCQETCDKLRARLVEYGFDPSRIKDLKQREDKLKSHYYQTCKNSEYLKRRVTNLEFNYTKPYPNFEASFVHGVVGQLFQIDNDNIRYATALQTCAGGRLFNVVVQDSQTATQLLERGRLRKRVTIIPLDKIYTRPISSQVLDLAKKIAPGKVELAINLIRFDESITKAMEFIFGNSLICEDPETAKKITFHPKIRARSITLQGDVYDPEGTLSGGSRNTSESLLVDIQKYNQIQKQIETIQADLNHVTEELQTQYATSQKTKTIQSDLNLSLHKLDLAKRNLDANPSSQIIARNEEILRDIGECENEIKTKQMSLKKCQEEVSTIEKDMKEYDSDKGSKLNELKKELKLLAKELEEQESESERKYDLFQNLELETEQLSSELDSNKTLLHNHLKSIESLKLENSDLEGKIRGVEDDLVTVQTELNEEKKRLMDIDDELNELETLIKKKQDEKKSSELELQKLVHDLNKYKSNTNNMEKIIEDLRQKHEFLEDFDLVRNIVKQNEGIDLDTYRERSKQLNEKFQELRKKVNPNIMNMIENVEKKEAALKTMIKTIEKDKMKIQETISKLNEYKRETLVKTWEKVTLDFGNIFADLLPNSFAKLVPCEGKDVTQGLEVKVKLGNIWKESLIELSGGQRSLIALSLIMALLQFRPAPMYILDQVDAALDLSHTQNIGHLIKTRFKGSQFIVVSLKEGMFANANRVFRTRFQDGTSVVSIM
In the case of B1, the binding entry (in the assay with Brn1 (S. cerevisiae); in assay [1]) was “binds” each time.

B2: Ycg1, Q06680 1-1035 (protein)
chain: MQDPDGIDINTKIFNSVAEVFQKAQGSYAGHRKHIAVLKKIQSKAVEQGYEDAFNFWFDKLVTKILPLKKNEIIGDRIVKLVAAFIASLERELILAKKQNYKLTNDEEGIFSRFVDQFIRHVLRGVESPDKNVRFRVLQLLAVIMDNIGEIDESLFNLLILSLNKRIYDREPTVRIQAVFCLTKFQDEEQTEHLTELSDNEENFEATRTLVASIQNDPSAEVRRAAMLNLINDNNTRPYILERARDVNIVNRRLVYSRILKSMGRKCFDDIEPHIFDQLIEWGLEDRELSVRNACKRLIAHDWLNALDGDLIELLEKLDVSRSSVCVKAIEALFQSRPDILSKIKFPESIWKDFTVEIAFLFRAIYLYCLDNNITEMLEENFPEASKLSEHLNHYILLRYHHNDISNDSQSHFDYNTLEFIIEQLSIAAERYDYSDEVGRRSMLTVVRNMLALTTLSEPLIKIGIRVMKSLSINEKDFVTMAIEIINDIRDDDIEKQEQEEKIKSKKINRRNETSVDEEDENGTHNDEVNEDEEDDNISSFHSAVENLVQGNGNVSESDIINNLPPEKEASSATIVLCLTRSSYMLELVNTPLTENILIASLMDTLITPAVRNTAPNIRELGVKNLGLCCLLDVKLAIDNMYILGMCVSKGNASLKYIALQVIVDIFSVHGNTVVDGEGKVDSISLHKIFYKVLKNNGLPECQVIAAEGLCKLFLADVFTDDDLFETLVLSYFSPINSSNEALVQAFAFCIPVYCFSHPAHQQRMSRTAADILLRLCVLWDDLQSSVIPEVDREAMLKPNIIFQQLLFWTDPRNLVNQTGSTKKDTVQLTFLIDVLKIYAQIEKKEIKKMIITNINAIFLSSEQDYSTLKELLEYSDDIAENDNLDNVSKNALDKLRNNLNSLIEEINERSETQTKDENNTANDQYSSILGNSFNKSSNDTIEHAADITDGNNTELTKTTVNISAVDNTTEQSNSRKRTRSEAEQIDTSKNLENMSIQDTSTVAKNVSFVLPDEKSDAMSIDEEDKDSESFSEVC
Take B2: the binding result in assay [2] is given as “binds”.
